Measurements from PMC7819943, “Rice protein-binding microarrays: a tool to detect cis-acting elements near promoter regions in rice”.
Some of the results follow.

target: T1, OsSMF1 (Oryza sativa, UniProt Q6ZLB0 1-436); assay: protein-binding microarray (RPBM); PBS, 2% BSA, 51.3 ng/ul salmon testes DNA, 50 uM zinc acetate, 200 nM TF, 25 C, 1 h; high values mean tight binding; conditions: protein: recombinant; tags: N-terminal polyhistidine and DsRed monomer fusion (pET32a); chain copies: 2; label: CyDye5-dUTP incorporated in the synthesized complementary strand; 3' TTTTT single-stranded linker to array surface; dsDNA, one strand shown
T1 sequence: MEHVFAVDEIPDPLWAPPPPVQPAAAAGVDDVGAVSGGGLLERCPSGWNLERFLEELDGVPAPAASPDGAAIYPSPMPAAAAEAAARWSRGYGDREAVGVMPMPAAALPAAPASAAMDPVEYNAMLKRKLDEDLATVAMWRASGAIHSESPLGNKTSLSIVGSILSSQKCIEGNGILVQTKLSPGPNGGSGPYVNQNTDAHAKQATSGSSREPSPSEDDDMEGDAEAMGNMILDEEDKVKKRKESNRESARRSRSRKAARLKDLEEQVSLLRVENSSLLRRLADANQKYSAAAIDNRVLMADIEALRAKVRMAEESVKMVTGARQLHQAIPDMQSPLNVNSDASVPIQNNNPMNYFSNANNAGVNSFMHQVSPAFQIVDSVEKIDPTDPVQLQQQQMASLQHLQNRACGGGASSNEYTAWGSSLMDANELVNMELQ
Procedure, shortened: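 Transcription factors, each fused N-terminally to a polyhistidine tag and DsRed, were expressed in E. coli BL21-CodonPlus and purified on Ni–NTA. A custom Agilent array was made double-stranded by primer extension with Cy5-dUTP and blocked with 2% BSA. It was incubated with 200 nM protein in PBS, 2% BSA, salmon testes DNA and 50 µM zinc acetate at 25 °C for 1 h, then washed. The binding signal is per-feature fluorescence intensity (arbitrary units) read on an Axon 4000B scanner.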

Row | Sequence | binding signal
1 | TTAATTCTGAATTTCTATTATTTCTTAATTGTATTTCTATCGGAGTCACCTAGTGCAG | 3320 fluorescence intensity (a.u.)
2 | TATATTTGACTGGATGGAGTATCTTGTTTCAAAGAAATCGCGGAGTCACCTAGTGCAG | 28700 fluorescence intensity (a.u.)
3 | ACCAATCTCCTTCGCCCTCTGACTCACTAGCTAGGAAACCCGGAGTCACCTAGTGCAG | 6550 fluorescence intensity (a.u.)
4 | GGCACGTACACAGTCAGATCCACCTTGGCAAGCTATAATCCGGAGTCACCTAGTGCAG | 5880 fluorescence intensity (a.u.)
5 | GATGATGGGACGTGGGGTGGGATCGGAAGTAGGAAAGTTGCGGAGTCACCTAGTGCAG | 3430 fluorescence intensity (a.u.)
6 | CCGCGCCCGCGCGTGAGCGGACTACAGTGTCAGCTTGCTACGGAGTCACCTAGTGCAG | 3250 fluorescence intensity (a.u.)
7 | ACCGAAGCAACTGAGAAGCAGATAGTCAAACTGATTGAAACGGAGTCACCTAGTGCAG | 5390 fluorescence intensity (a.u.)
8 | AGCGCATAGGACGCCATGTTATCCGCCGCCGACTGGGCGGCGGAGTCACCTAGTGCAG | 22800 fluorescence intensity (a.u.)
9 | CCCGCGCGGCGCGGCGCCCCGTGACGATGCGTTGGCCCACCGGAGTCACCTAGTGCAG | 5360 fluorescence intensity (a.u.)
10 | TGACCCCACCGGTCAGTCAGTGCCACGTCAGGACTCCTATCGGAGTCACCTAGTGCAG | 17000 fluorescence intensity (a.u.)
11 | AACGCGCAGCGCCACTGCTGCCACCGCCCGCCGCCTGCCGCGGAGTCACCTAGTGCAG | 3410 fluorescence intensity (a.u.)
12 | GCCGAGGACGACGCAGTCCATCTGTGCCCAATCCACGTGGCGGAGTCACCTAGTGCAG | 13700 fluorescence intensity (a.u.)
13 | ATTTAGCCATGTCATCGTCCACGTGGCATGCCACATAGGCCGGAGTCACCTAGTGCAG | 15400 fluorescence intensity (a.u.)
14 | GCCGACGGCATCGTCGTCAACGGCAACGGGTTCCACGCGGCGGAGTCACCTAGTGCAG | 4280 fluorescence intensity (a.u.)
15 | CATTTATTTTATTATGACTTGACTTATCATCAAATAATCTCGGAGTCACCTAGTGCAG | 27900 fluorescence intensity (a.u.)
16 | TGTAAGCATCAGCATGTCAAGGTTAACACCTCACTATCTCCGGAGTCACCTAGTGCAG | 4630 fluorescence intensity (a.u.)
17 | TTCTCTGCTCCTTGGCTCGTCTCCACGGCGTCATTCCGTGCGGAGTCACCTAGTGCAG | 3880 fluorescence intensity (a.u.)
18 | AATATAGCCAACTGCATAGAGCCAGCTCATGCATATTGGTCGGAGTCACCTAGTGCAG | 4150 fluorescence intensity (a.u.)
19 | CGCCGCCTGCGCAACCACACCACAGACGCGTCACCACCCACGGAGTCACCTAGTGCAG | 10100 fluorescence intensity (a.u.)
20 | GAACCTCGAAGAACTTCCGATGCTCCCGTGGCATGCTATACGGAGTCACCTAGTGCAG | 4110 fluorescence intensity (a.u.)
21 | TCCCCACGTTGCATCCCGTCATCCCCATCGAGCGATCCCCCGGAGTCACCTAGTGCAG | 5760 fluorescence intensity (a.u.)
22 | CTCCCGGCGCACTCGTCGTCGTGTTGGGTTGCCGCCGCTTCGGAGTCACCTAGTGCAG | 3910 fluorescence intensity (a.u.)
23 | TCGTCGACTCCGACGGTGCCACCGTTCCCCTTTCGTCTCCCGGAGTCACCTAGTGCAG | 3350 fluorescence intensity (a.u.)
24 | CAGGCTTAAGGATTCTCGCGTGAGAAAGAATGTTGGAATACGGAGTCACCTAGTGCAG | 4440 fluorescence intensity (a.u.)
25 | CCACGCTATCCCATGCGATTCGAGAAGGTTCCACACACACCGGAGTCACCTAGTGCAG | 41300 fluorescence intensity (a.u.)
26 | CATGTACACACCCACAGTCATCTGCTCATGTTTTCACGGTCGGAGTCACCTAGTGCAG | 3630 fluorescence intensity (a.u.)
27 | ATCATAGTATGCCGTACGGCCTGGACCTTCTGTCACGTGGCGGAGTCACCTAGTGCAG | 5660 fluorescence intensity (a.u.)

Row | Sequence | binding signal
28 | AGGCATACGGCAGATAGCAGTCAACAATGCACACAGGCACCGGAGTCACCTAGTGCAG | 3750 fluorescence intensity (a.u.)
29 | CCTAACTTCTCTCTTACACCTCATTATCTAATCTTATGTGCGGAGTCACCTAGTGCAG | 4740 fluorescence intensity (a.u.)
30 | CTCCGTGATCGTCATGTCAAGACGCAAAATAAAGAGCAATCGGAGTCACCTAGTGCAG | 33400 fluorescence intensity (a.u.)
31 | AGTACACAATCAATACTTTGAATCTACTTGTCATACGCACCGGAGTCACCTAGTGCAG | 3520 fluorescence intensity (a.u.)
32 | TCGAATTAATCATATGAACTATGCGATTTTAATTAACCGTCGGAGTCACCTAGTGCAG | 5440 fluorescence intensity (a.u.)
33 | CCGTCGCCAACACAGCCACAAACCCACAATTACGCGGCGGCGGAGTCACCTAGTGCAG | 36800 fluorescence intensity (a.u.)
34 | AACTTTCAACTACAGGCTCAAGTGGCCCATTAGTGCGCCACGGAGTCACCTAGTGCAG | 3520 fluorescence intensity (a.u.)
35 | CCATTCCACTCCTGCGGCTGCTGCTCCCTCTCCCTCTTCGCGGAGTCACCTAGTGCAG | 3450 fluorescence intensity (a.u.)
36 | GAGAAAGGAACAACTACAAAAGACACACATATATACTATGCGGAGTCACCTAGTGCAG | 39400 fluorescence intensity (a.u.)
37 | GTGAGTCAGGGGCAAAAGAGTAAACTCGCGCCGCCGATTTCGGAGTCACCTAGTGCAG | 32500 fluorescence intensity (a.u.)
38 | CTCTCTCTCGGCTTCCACTCCCGTCTCCTCGTCTCCTCGCCGGAGTCACCTAGTGCAG | 4090 fluorescence intensity (a.u.)
39 | AATCGAAGTTCAATTATGCAAACATGCATTTGCTCTGCTTCGGAGTCACCTAGTGCAG | 30600 fluorescence intensity (a.u.)
40 | CGTCGTGTAGAAAAGCTACTGGAGCTTCGGTGGATTTCGACGGAGTCACCTAGTGCAG | 3140 fluorescence intensity (a.u.)
41 | AAATTTTGGCTTGACGTGTCAGGAGGCTCCTGGCATCCAACGGAGTCACCTAGTGCAG | 8550 fluorescence intensity (a.u.)
42 | AATTTTGTTACCATGTCATTGTTGGTTTACGACACCTGGACGGAGTCACCTAGTGCAG | 3710 fluorescence intensity (a.u.)
43 | ATGGGTGGTTTCGCTGACGTGGCATCCTAATCTCCATGTGCGGAGTCACCTAGTGCAG | 30700 fluorescence intensity (a.u.)
44 | CACGCAAGCGCCCCTTCCACGCGTCACGCCGTGCGGCGACCGGAGTCACCTAGTGCAG | 6640 fluorescence intensity (a.u.)
45 | GGCTTCGCCGACGGTGGCTCGGGCGACGGCGATGCTGGGGCGGAGTCACCTAGTGCAG | 58600 fluorescence intensity (a.u.)
46 | TATCCAGTATCTACGTGGAATATTTTCTCTTTCGATCGTCCGGAGTCACCTAGTGCAG | 9650 fluorescence intensity (a.u.)
47 | ATCTCATCTTCCCACTCAAATTCCACGTCCACCAACCGCCCGGAGTCACCTAGTGCAG | 5080 fluorescence intensity (a.u.)
48 | CACACACAATAGTTGCACAGTGCAGAGACAAGATTGGAAACGGAGTCACCTAGTGCAG | 34900 fluorescence intensity (a.u.)
49 | GTAATTAAATTAAATTAAATTGATTAATACCAACCCTGGTCGGAGTCACCTAGTGCAG | 24500 fluorescence intensity (a.u.)
50 | AATGTTACATAGATGCCACATCAGCTGAAACAACCATCTACGGAGTCACCTAGTGCAG | 13200 fluorescence intensity (a.u.)
51 | CGCGGCCGCCGGCGCTGTCCGGGACGCCCCGCACACCGTGCGGAGTCACCTAGTGCAG | 5740 fluorescence intensity (a.u.)
52 | AACGAGATGGATTGTATCTTCTGCACTCAGATGCCACTGCCGGAGTCACCTAGTGCAG | 28200 fluorescence intensity (a.u.)
53 | CCCCGGCGCGGCGTGACGAGGCCTTTTCTTCTTTCTTTCACGGAGTCACCTAGTGCAG | 4540 fluorescence intensity (a.u.)
54 | ATAAACAAGCTATATGCTTACGTGGAAGAGAAAGATAAATCGGAGTCACCTAGTGCAG | 5500 fluorescence intensity (a.u.)

Nos. 18–20, reprinted for reference:
Row | Sequence | binding signal
18 | AATATAGCCAACTGCATAGAGCCAGCTCATGCATATTGGTCGGAGTCACCTAGTGCAG | 4150 fluorescence intensity (a.u.)
19 | CGCCGCCTGCGCAACCACACCACAGACGCGTCACCACCCACGGAGTCACCTAGTGCAG | 10100 fluorescence intensity (a.u.)
20 | GAACCTCGAAGAACTTCCGATGCTCCCGTGGCATGCTATACGGAGTCACCTAGTGCAG | 4110 fluorescence intensity (a.u.)
